No constants are given. Whether binding was seen depends on the method and setting. Binding seen in cells or lysates may run through a third protein. Binding can be weak; no strength is given. Where a sequence is shown, tags or fusion partners need not be part of it.
Target: T1, UBR::GFP (UBR domain of Ubr3, aa 222-292, with GFP at the carboxyl terminus) (Drosophila) (UniProt Q9W3M3)
T1 sequence: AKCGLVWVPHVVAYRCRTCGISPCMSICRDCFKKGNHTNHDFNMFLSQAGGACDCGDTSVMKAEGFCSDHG
Experiment: co-IP; S2 cells co-transfected with HA::Cos2 or its deletion constructs and GFP, UBR::GFP or Ubr3::GFP; lysate precipitated with anti-GFP agarose overnight at 4°C, blot anti-HA and anti-GFP; lysis buffer 25 mM Tris-HCl pH 7.5, 150 mM NaCl, 1 mM EDTA, 1% NP-40; Ubr3::GFP with HA::Cos2 also after Colchicine (1 ug/ml, 5 hours; interaction not affected) and with co-transfected Hh (interaction strongly increased)

Question: How did the binding turn out when “HA::Cos2ΔC3 (Drosophila) (domain or fragment)” was run?
Answer: binds

Question: How did the binding turn out when “HA::Cos2ΔC2 (Drosophila) (domain or fragment)” was run?
Answer: binds

Question: How did the binding turn out when “HA::Cos2ΔC1 (Drosophila) (domain or fragment)” was run?
Answer: binds

Question: For “HA::Cos2ΔN2 (Drosophila) (domain or fragment)”, which binding is on record?
Answer: no binding

Question: For “HA::Cos2ΔN1 (Drosophila) (domain or fragment)”, which binding is on record?
Answer: no binding
